Some of the results follow. The data scatter; read single values as rough.
Tests used:
[1] = compound: ClCC(=O)N[C@@H]1CCCc2ccccc12; experiment: log2 mean competition ratio of IA-DTB cysteine labelling (DMSO/compound) (log2 ratio); higher = stronger cysteine engagement by compound; conditions: treatment time: 4 h, cell line lysate: HEK293T
Experimental: (§1)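 IA-DTB competitive cysteine chemoproteomics in HEK293T RIPA lysate. Lysates were treated with compound 29 or 30 at 50 or 200 µM for 4 h, then IA-DTB (500 µM, 1 h), trypsin-digested, NeutrAvidin-enriched and analysed by diaPASEF. Competition ratio = intensity DMSO / intensity compound (n=4 treated, n=64 DMSO); binding: mean log2 CR ≥ 1 and p ≤ 0.05 plus QC filters. Target is the cysteine site.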

[2] = compound: ClCC(=O)N[C@H]1CCCc2ccccc12; experiment: as above; conditions: treatment time: 4 h, cell line lysate: HEK293T
Experimental: as §1

Target	log2 mean competition ratio ([1]; 50 µM)	log2 mean competition ratio ([1]; 200 µM)	log2 mean competition ratio ([2]; 50 µM)	log2 mean competition ratio ([2]; 200 µM)
ATXN10 C382 (UniProt Q9UBB4)	0.331	0.314	0.655	0.324
BHLHB9 C101	0.376	-0.0322	0.189	0.0147
ATE1 C205 (UniProt O95260)	0.000286	-0.41	0.219	-0.238
BIRC6 C777	0.0441	0.00802	0.373	0.00706
BACH1 C557 (UniProt O14867)	-0.182	0.368	-0.259	0.0653
AVL9 C119 (UniProt Q8NBF6)	-0.0494	-0.059	0.297	0.05
ATP6V0A1 C247 (UniProt Q93050)	0.462	-0.175	0.232	-0.169
BCAR3 C64 (UniProt O75815)	0.129	0.166	-0.197	0.101
ASPM C1088 (UniProt Q8IZT6)	-0.273	0.0652	-0.411	-0.0438
BAZ1B C156 (UniProt Q9UIG0)	-0.235	0.253	-0.35	-0.0651
BCORL1 C797 (UniProt Q5H9F3)	-0.0557	0.146	0.657	0.261
ASNSD1 C378	0.22	-0.000899	0.0482	-0.0819
BMS1 C734 (UniProt Q14692)	0.0391	0.0639	-0.0241	0.0522
BABAM2 C34 (UniProt Q9NXR7)	-0.0367	0.0906	-0.289	0.0694
ATP9B C122 (UniProt O43861)	-0.151	-0.182	0.306	0.0133
ATIC C434 (UniProt P31939)	0.0573	-0.128	-0.146	-0.322
ATP5PO C141 (UniProt P48047)	-0.0429	-0.0458	-0.261	-0.315
BAIAP2 C195 (UniProt Q9UQB8)	0.423	0.432	0.105	0.0241
ATAD2B C437 (UniProt Q9ULI0)	0.29	0.847	0.168	0.393
BACH1 C184 (UniProt O14867)	-0.131	0.0968	0.112	0.265
BAHCC1 C683 (UniProt Q9P281)	0.428	-0.0868	-0.0585	0.218

Looked up above:
AVL9 C119 (UniProt Q8NBF6) – log2 mean competition ratio ([2]; 50 µM): 0.297
BHLHB9 C101 – log2 mean competition ratio ([2]; 200 µM): 0.0147

Source: the supplement of paper PMC11732987, “Enantioselective OTUD7B fragment discovery through chemoproteomics screening and high-throughput optimisation” (Communications Chemistry, 2025)
